We go through two molecules from publication PMC3589465.

Chains of the proteins cited; added tags and fusions are not shown. Residues count along the entry.
UniProt Q60751, residues 742-1373: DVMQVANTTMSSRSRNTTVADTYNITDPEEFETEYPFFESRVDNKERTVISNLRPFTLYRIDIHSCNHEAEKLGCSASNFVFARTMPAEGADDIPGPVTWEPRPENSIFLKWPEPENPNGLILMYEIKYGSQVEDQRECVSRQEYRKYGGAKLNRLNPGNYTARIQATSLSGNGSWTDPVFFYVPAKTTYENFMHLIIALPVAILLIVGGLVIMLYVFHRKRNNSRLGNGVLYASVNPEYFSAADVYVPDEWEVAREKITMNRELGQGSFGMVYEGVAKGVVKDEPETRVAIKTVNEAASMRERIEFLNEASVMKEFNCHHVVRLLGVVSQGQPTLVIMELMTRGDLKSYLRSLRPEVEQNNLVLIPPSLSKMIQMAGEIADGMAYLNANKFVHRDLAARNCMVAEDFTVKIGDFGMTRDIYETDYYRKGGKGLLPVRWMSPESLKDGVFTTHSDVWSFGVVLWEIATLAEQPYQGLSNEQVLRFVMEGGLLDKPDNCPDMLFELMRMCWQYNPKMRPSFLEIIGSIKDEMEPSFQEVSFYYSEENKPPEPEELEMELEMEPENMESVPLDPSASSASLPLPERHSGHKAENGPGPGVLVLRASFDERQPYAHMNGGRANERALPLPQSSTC

No constants are given. Whether binding was seen depends on the method and setting. In cells and extracts the contact can be indirect. Some binding calls cover weakened binding; strength is not graded here.

In this assay the target is IGF-1 receptor β subunit (mouse (endogenous in 3T3-L1)) (UniProt Q60751). The assay is described as follows: co-IP; 500 µg of 3T3-L1 lysate (RIPA buffer with 1% NP-40, 150 mM NaCl) precipitated with 5 µg anti-IGF-1Rβ antibody on a Catch and Release v2.0 spin column, 12 h at 4°C; serum-depleted cells with or without 100 µg/ml AGEs for 15 min; Western blots of the eluate. In general terms: Immunoblotting shows a protein as a band on a membrane.

B1: Caveolin-1 (protein, UniProt P49817 1-178)
chain: MSGGKYVDSEGHLYTVPIREQGNIYKPNNKAMADEVTEKQVYDAHTKEIDLVNRDPKHLNDDVVKIDFEDVIAEPEGTHSFDGIWKASFTTFTVTKYWFYRLLSTIFGIPMALIWGIYFAILSFLHIWAVVPCIKSFLIEIQCISRVYSIYVHTFCDPLFEAIGKIFSNIRISTQKEI
As to B1, the binding result is “binds”.

B2: phospho-Cav-1 (Cav-1 tyr14) (protein, UniProt P49817 1-178)
chain: MSGGKYVDSEGHLYTVPIREQGNIYKPNNKAMADEVTEKQVYDAHTKEIDLVNRDPKHLNDDVVKIDFEDVIAEPEGTHSFDGIWKASFTTFTVTKYWFYRLLSTIFGIPMALIWGIYFAILSFLHIWAVVPCIKSFLIEIQCISRVYSIYVHTFCDPLFEAIGKIFSNIRISTQKEI
modifications: phosphotyrosine at 14
Consider B2, for which the binding entry is “binds”.
